According to US12570923B2, “Tuning sulfonation and controlling oleo-furan surfactant compositions” (SIRONIX RENEWABLES, INC., priority 2021, dated 2026):

Legend:
[1] = Wetting of cotton skein, ASTM D2281; conditions: cotton skein at 30° C.
[2] = High shear foam height, ASTM D3519; conditions: 20° C.; for High Shear Foam Height after 5 minutes: ASTM D3519, after 5 minutes; for High Shear Foam Height immediately after foam formation: ASTM D3519, immediately after foam formation

Structure (SMILES)	Wetting Time [1]	High Shear Foam Height after 5 minutes [2]	High Shear Foam Height immediately after foam formation [2]
CCCCCCCCCCC(C(=O)c1cc(S(=O)(=O)[O-])c(C)o1)S(=O)(=O)[O-].[Na+].[Na+] (stereo not drawn) [Na^+ 4,α-OMFS-12-1/0]	>300 s	15 mm	25 mm
CCCCCCCCCCC(C(=O)c1cc(S(=O)(=O)O)c(C)o1)S(=O)(=O)O.N.N (stereo not drawn) [NH4^+4,α-OMFS-12-1/0]	>300 s	31 mm	37 mm
CCCCCCCCCCCCC(C(=O)c1cc(S(=O)(=O)[O-])c(C)o1)S(=O)(=O)[O-].[Na+].[Na+] (stereo not drawn) [Na^+ 4,α-OMFS-14-1/0]	>300 s	50 mm	53 mm
CCCCCCCCCCCC(=O)c1cc(S(=O)(=O)[O-])c(C)o1.[Na+] [Na^+ 4-OMFS-12-1/0]	48 s	69 mm	71 mm
CCCCCCCCCCCCCCCCC(C(=O)c1cc(S(=O)(=O)[O-])c(C)o1)S(=O)(=O)[O-].[Na+].[Na+] (stereo not drawn) [Na^+ 4,α-OMFS-18-1/0]	141 s	40/40 mm	40/40 mm
CCCCCCCCCCC(C(=O)c1ccc(C)o1)S(=O)(=O)[O-].[Na+] (stereo not drawn) [Na^+ α-OMFS-12-1/0]	18 s	65/65 mm	65/65 mm
